Taken from: PubChem BioAssay AID1259308 (NCATS, 2017)

- Purpose: 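Knock-downs that increase output of a recombinant reporter protein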 (primary screen)
- System: human HEK293 embryonic kidney cells stably expressing firefly luciferase (HEK-CMV-Luc2-Hygro)
- Knock-down reagent: single siRNA against human genes, 0.8 pmol siRNA per well
- Timing: 72 h
- Measurement: 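Reporter luminescence and viable-cell signal on separate replicate plates, given as percent of non-targeting control and median/MAD z-scores, plus per-cell luciferase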
- Scale: total luciferase, z-score and total luciferase, % of control: higher = more reporter protein produced
- Active means: 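Active when the median/MAD z-score for overall luciferase is greater than 3; a gene was taken forward for validation with new siRNAs if at least two of its three siRNAs passed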
- Meaning of the calls: active = raised luciferase; inactive = no rise
In all, the deposit lists about 59,000 reagents; below is a random part of them. About 1,510 of them (2.6%) count as active. 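Calls use total luciferase alone and ignore viability, so some active siRNAs may act by altering cell number.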 Unmarked entries are inactive. Reagents against one gene are numbered here. Further read-outs or replicates are left out here.

RIMS2 (regulating synaptic membrane exocytosis 2) #1 scored total luciferase, z-score -0.466; total luciferase, % of control 72.6.
RIMS2 (regulating synaptic membrane exocytosis 2) #2 scored total luciferase, z-score 1.71; total luciferase, % of control 116.
RIMS2 (regulating synaptic membrane exocytosis 2) #3 gave total luciferase, z-score 0.228; total luciferase, % of control 86.4.
With knock-down of CCL15 (C-C motif chemokine ligand 15) #1 the results were total luciferase, z-score 2.87; total luciferase, % of control 139.
CCL15 (C-C motif chemokine ligand 15) #2 gave total luciferase, z-score -0.287; total luciferase, % of control 76.2.
CCL15 (C-C motif chemokine ligand 15) #3 gave total luciferase, z-score -0.452; total luciferase, % of control 72.9.
RXRA (retinoid X receptor alpha) #1 showed total luciferase, z-score -0.0937; total luciferase, % of control 80.
For RXRA (retinoid X receptor alpha) #2, the entry reads total luciferase, z-score -1.14; total luciferase, % of control 59.1.
For RXRA (retinoid X receptor alpha) #3 the deposit lists total luciferase, z-score 0.898; total luciferase, % of control 99.7.

2 entries from above, ordered by “total luciferase, z-score”, descending:
CCL15 (C-C motif chemokine ligand 15) #1 | total luciferase, z-score = 2.87; total luciferase, % of control = 139
RIMS2 (regulating synaptic membrane exocytosis 2) #3 | total luciferase, z-score = 0.228; total luciferase, % of control = 86.4

Next entries follow.
For TCF7L2 (transcription factor 7 like 2) #1, the values are total luciferase, z-score -0.963; total luciferase, % of control 62.7.
Depletion of TCF7L2 (transcription factor 7 like 2) #2 resulted in: total luciferase, z-score -0.566; total luciferase, % of control 70.6.
With knock-down of TCF7L2 (transcription factor 7 like 2) #3, the screen gave total luciferase, z-score 0.0309; total luciferase, % of control 82.5.
PCGF2 (polycomb group ring finger 2) #1 gave total luciferase, z-score 0.441; total luciferase, % of control 90.6.
For PCGF2 (polycomb group ring finger 2) #2, the entry reads total luciferase, z-score -0.0258; total luciferase, % of control 81.4.
PCGF2 (polycomb group ring finger 2) #3 showed total luciferase, z-score 2.6; total luciferase, % of control 134.
Silencing of PRAME (PRAME nuclear receptor transcriptional regulator) #1 resulted in: total luciferase, z-score -0.632; total luciferase, % of control 69.3.
PRAME (PRAME nuclear receptor transcriptional regulator) #2 showed total luciferase, z-score 0.0528; total luciferase, % of control 82.9.
PRAME (PRAME nuclear receptor transcriptional regulator) #3 showed total luciferase, z-score 3.83 (active); total luciferase, % of control 158.
Silencing of WDR64 (WD repeat domain 64) #1 came out at: total luciferase, z-score -0.0138; total luciferase, % of control 81.6.
After knock-down of WDR64 (WD repeat domain 64) #2 the results were total luciferase, z-score -0.129; total luciferase, % of control 79.3.
For WDR64 (WD repeat domain 64) #3 the deposit lists total luciferase, z-score -0.91; total luciferase, % of control 63.8.
